The match of structure and compound is tentative.
Biological target: full-length FLAG-KDM5A (Homo sapiens, UniProt P29375)
Assay: AlphaScreen KDM5A demethylation assay (bio-H3K4me3 peptide)
Details: read-out: KDM5A IC50; inhibitors found by high throughput screening

Amino acid sequences for entries named in this document (tags omitted).
UniProt P29375, whole entry: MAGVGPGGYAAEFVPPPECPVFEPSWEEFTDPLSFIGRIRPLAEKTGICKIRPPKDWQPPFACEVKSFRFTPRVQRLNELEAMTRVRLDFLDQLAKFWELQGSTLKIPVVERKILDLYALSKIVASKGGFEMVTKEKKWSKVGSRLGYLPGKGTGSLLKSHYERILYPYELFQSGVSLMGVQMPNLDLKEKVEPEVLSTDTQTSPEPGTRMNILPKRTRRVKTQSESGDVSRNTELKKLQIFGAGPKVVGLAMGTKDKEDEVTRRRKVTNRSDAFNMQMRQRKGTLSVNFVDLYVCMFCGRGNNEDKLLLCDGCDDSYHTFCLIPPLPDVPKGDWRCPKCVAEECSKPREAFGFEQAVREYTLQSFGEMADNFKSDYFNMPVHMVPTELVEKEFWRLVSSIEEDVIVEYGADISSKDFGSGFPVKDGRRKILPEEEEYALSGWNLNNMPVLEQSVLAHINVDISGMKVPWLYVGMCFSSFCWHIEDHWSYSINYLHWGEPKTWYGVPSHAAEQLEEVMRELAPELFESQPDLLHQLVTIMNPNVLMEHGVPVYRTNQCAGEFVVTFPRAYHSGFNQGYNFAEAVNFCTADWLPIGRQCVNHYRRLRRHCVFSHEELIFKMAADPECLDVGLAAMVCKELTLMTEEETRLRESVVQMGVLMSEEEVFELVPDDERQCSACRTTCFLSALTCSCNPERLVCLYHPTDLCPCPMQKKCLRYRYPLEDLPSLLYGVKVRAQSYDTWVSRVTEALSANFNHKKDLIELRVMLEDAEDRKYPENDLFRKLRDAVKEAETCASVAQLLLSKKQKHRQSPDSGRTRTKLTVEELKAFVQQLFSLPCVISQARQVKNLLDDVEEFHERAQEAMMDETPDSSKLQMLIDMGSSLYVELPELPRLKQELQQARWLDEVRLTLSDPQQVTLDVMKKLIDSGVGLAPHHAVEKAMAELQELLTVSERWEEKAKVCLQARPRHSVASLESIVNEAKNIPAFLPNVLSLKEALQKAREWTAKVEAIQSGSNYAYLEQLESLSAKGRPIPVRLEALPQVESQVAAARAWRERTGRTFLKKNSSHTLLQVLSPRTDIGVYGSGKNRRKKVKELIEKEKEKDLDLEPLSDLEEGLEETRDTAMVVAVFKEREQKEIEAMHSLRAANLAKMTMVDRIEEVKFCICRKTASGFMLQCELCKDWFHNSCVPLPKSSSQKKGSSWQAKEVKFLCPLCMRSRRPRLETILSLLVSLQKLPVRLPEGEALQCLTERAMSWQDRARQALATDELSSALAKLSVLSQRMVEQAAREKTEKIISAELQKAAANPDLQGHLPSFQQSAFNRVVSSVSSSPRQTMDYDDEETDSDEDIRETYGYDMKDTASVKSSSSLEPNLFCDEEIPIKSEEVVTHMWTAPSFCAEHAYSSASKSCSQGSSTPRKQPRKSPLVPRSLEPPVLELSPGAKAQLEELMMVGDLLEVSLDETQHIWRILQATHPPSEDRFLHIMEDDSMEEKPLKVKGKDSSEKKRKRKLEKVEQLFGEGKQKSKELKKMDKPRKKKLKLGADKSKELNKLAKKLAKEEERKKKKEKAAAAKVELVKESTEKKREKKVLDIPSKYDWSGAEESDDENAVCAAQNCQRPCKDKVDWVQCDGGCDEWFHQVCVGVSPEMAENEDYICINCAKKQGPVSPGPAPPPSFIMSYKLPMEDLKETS

IC50: 367 nM
Structure (SMILES): Sc1nnc(-c2ccncc2)n1-c1ccc2c(c1)OCCO2

— US20190151289A1, “Identification of Small Molecule Inhibitors of Jumonji AT-Rich Interactive Domain 1A (JARID1A) Histone Demethylase” (YALE UNIVERSITY, priority 2016, published 2019)
